Data from the supplement of paper PMC10849652.
This is one part of the list.

Chains of the proteins cited; added tags and fusions are not shown. Lines headed by an entry give the natural chain unless they say otherwise; changes in a name come on top.
UniProt P78317: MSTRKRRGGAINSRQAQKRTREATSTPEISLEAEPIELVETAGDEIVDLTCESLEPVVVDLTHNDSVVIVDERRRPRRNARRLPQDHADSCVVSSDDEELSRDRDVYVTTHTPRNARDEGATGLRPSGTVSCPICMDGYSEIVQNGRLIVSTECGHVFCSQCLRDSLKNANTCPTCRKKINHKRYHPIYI
UniProt O76064: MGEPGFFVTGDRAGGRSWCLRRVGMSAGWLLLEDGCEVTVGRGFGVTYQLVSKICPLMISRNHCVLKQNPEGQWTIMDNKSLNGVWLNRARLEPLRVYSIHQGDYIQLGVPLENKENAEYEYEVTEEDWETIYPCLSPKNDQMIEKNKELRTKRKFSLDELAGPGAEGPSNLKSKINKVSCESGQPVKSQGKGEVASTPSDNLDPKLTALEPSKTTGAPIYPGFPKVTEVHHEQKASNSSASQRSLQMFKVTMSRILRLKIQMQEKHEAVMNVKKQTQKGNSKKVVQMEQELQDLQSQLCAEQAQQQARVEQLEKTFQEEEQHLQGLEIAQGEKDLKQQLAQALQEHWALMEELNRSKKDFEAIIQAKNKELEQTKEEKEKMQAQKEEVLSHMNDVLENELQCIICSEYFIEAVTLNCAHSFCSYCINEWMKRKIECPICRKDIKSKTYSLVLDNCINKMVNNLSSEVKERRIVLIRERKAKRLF
UniProt Q6ZS11: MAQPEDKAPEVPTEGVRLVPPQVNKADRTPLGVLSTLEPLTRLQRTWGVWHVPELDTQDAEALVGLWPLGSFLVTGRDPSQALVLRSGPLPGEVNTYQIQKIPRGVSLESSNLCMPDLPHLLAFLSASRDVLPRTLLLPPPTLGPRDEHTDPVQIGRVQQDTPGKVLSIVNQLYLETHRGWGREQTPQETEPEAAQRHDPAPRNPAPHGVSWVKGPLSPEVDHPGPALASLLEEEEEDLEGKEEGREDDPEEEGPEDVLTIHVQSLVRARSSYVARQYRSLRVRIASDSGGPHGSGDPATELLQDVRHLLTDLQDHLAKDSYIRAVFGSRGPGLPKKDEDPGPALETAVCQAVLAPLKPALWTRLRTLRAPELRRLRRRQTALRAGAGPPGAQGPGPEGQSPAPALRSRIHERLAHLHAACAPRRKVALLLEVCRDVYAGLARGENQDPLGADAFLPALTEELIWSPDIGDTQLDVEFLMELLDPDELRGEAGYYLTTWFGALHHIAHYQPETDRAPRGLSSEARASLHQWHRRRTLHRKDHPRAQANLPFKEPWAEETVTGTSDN
UniProt Q9H920: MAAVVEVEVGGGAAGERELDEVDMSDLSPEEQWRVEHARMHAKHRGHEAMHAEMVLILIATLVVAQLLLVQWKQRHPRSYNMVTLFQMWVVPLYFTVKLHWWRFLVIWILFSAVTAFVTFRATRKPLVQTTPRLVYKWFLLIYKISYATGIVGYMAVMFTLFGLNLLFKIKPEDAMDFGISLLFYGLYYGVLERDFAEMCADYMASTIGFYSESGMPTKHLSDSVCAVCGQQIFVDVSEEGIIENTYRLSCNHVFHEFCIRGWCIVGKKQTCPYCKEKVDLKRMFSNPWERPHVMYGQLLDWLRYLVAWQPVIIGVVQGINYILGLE
UniProt Q9NVW2: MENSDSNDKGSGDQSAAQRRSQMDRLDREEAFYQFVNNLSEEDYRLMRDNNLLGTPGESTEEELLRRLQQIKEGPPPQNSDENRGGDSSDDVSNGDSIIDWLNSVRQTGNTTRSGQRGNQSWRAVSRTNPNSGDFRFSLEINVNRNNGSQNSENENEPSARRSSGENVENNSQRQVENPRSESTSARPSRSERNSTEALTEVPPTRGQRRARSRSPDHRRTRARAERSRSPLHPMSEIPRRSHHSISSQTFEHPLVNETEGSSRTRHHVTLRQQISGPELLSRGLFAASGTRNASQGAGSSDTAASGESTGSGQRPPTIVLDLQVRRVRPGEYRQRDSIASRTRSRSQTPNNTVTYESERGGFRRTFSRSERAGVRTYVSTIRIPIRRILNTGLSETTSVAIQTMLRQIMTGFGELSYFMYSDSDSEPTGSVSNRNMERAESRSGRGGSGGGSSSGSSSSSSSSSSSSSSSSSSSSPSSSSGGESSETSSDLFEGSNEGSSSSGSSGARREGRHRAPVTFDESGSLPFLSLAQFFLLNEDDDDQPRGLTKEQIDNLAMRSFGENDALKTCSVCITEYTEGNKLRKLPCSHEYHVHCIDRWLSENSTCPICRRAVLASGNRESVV
UniProt Q99942: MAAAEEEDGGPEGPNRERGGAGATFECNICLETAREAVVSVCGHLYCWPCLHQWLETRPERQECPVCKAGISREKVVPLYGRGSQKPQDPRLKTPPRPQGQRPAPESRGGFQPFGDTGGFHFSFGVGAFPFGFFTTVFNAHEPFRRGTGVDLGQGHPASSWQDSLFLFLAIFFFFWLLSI
UniProt P08922: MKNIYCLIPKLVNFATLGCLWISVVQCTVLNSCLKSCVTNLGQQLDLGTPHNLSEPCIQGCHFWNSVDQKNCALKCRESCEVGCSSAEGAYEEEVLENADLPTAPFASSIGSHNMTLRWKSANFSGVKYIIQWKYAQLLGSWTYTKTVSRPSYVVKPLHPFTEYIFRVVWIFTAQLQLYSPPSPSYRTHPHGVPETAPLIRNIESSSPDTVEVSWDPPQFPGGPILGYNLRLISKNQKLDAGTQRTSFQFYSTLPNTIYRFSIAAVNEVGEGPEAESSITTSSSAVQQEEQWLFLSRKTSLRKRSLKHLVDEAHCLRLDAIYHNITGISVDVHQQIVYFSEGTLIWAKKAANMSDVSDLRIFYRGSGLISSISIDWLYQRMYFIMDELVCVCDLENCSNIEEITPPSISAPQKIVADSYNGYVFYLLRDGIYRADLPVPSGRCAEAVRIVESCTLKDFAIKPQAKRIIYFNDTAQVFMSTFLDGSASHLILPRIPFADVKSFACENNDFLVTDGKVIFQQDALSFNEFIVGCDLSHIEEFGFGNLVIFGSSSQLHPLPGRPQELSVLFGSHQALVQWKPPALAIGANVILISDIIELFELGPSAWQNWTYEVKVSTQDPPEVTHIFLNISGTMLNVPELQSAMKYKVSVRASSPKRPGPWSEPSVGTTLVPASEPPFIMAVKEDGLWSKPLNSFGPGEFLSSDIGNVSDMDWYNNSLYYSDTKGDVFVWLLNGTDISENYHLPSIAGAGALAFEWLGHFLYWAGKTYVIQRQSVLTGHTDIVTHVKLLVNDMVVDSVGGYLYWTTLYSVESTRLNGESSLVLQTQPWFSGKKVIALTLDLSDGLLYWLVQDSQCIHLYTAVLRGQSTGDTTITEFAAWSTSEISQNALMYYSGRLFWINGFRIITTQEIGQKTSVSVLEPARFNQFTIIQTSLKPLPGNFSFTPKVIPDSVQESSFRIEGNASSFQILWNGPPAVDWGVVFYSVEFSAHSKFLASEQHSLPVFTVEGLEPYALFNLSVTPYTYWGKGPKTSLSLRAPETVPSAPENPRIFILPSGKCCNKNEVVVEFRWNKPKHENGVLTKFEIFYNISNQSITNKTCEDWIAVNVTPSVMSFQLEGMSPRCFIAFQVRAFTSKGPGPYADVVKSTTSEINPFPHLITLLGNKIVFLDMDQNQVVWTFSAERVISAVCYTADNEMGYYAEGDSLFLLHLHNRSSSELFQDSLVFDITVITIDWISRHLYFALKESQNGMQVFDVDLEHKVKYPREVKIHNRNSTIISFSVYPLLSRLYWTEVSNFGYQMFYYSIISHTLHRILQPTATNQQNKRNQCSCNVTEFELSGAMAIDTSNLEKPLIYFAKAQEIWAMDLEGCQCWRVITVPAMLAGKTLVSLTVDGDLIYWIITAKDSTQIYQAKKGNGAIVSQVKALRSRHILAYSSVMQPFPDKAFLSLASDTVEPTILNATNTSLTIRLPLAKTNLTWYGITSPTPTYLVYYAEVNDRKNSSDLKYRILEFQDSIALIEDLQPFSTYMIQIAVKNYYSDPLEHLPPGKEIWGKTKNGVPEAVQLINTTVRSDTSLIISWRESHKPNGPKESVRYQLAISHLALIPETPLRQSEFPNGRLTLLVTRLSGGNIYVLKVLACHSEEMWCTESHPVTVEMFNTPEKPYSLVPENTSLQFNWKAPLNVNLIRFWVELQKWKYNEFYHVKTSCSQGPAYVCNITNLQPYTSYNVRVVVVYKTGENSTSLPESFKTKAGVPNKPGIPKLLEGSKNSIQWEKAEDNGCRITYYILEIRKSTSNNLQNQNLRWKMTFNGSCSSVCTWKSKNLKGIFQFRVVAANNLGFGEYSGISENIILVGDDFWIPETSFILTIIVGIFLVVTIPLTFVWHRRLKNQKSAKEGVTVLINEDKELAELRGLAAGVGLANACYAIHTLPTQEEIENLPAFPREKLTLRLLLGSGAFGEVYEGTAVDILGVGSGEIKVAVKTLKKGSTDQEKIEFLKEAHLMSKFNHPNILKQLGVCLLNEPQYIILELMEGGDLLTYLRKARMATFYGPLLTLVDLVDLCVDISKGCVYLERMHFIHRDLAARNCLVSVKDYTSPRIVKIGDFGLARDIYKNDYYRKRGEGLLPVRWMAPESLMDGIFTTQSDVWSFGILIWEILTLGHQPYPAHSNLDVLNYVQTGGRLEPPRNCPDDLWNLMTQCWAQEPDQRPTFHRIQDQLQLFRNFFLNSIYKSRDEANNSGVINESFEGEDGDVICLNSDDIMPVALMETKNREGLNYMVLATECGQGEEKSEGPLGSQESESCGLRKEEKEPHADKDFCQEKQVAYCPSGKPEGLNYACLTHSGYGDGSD
UniProt Q86UA6: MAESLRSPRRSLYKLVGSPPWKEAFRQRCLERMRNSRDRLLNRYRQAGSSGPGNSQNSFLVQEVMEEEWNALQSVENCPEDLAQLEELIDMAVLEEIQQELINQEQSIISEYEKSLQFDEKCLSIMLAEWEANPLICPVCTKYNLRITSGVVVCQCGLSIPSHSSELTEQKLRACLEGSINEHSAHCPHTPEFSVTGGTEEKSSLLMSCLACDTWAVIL
UniProt Q8WVD3: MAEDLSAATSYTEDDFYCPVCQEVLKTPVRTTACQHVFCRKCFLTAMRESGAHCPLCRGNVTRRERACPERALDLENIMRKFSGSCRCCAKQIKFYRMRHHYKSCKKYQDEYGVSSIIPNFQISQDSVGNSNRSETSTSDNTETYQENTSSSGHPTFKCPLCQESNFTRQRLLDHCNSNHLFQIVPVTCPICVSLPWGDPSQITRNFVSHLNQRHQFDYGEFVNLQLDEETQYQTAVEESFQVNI
UniProt Q5M7Z0: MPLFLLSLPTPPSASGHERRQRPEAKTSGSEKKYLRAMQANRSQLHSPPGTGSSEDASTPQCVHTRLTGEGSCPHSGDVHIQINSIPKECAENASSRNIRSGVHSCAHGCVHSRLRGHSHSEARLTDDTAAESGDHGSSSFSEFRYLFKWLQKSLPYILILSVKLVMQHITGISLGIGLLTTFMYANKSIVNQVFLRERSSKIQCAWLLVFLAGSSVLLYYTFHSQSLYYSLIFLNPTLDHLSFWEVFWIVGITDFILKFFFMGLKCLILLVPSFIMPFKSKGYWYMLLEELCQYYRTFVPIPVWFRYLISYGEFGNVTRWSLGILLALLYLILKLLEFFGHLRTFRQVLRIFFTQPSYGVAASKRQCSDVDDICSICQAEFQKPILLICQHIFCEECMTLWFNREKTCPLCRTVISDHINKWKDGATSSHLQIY
UniProt Q8IUC4: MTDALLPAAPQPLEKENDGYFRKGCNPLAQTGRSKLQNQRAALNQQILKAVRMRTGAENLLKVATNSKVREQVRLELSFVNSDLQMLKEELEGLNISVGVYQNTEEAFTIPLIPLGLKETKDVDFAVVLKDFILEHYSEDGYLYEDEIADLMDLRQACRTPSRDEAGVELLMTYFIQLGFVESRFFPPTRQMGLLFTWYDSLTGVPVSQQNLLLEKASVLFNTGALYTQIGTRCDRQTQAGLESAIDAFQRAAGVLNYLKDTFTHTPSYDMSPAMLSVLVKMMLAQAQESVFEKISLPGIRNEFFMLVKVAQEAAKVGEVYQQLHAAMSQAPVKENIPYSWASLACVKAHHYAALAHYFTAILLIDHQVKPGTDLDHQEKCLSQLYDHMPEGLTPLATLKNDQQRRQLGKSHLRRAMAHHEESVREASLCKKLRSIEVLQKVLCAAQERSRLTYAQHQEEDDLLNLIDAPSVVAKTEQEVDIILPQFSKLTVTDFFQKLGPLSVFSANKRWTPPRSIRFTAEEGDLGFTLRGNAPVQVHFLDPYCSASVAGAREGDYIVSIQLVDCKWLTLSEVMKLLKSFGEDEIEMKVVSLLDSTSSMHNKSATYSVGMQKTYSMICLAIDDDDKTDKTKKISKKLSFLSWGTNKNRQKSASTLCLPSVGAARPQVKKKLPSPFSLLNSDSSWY
UniProt P17081: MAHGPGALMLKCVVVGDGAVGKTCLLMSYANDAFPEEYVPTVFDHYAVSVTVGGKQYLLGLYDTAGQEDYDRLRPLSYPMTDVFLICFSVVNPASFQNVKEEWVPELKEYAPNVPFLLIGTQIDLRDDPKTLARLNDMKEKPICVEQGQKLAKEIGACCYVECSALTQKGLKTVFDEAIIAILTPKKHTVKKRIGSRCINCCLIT

The targets below were run with C1=CC2=NC=CN=C2C=C1/C=C/3\C(=O)NC(=O)S3 (assay: log2 fold change, soluble protein after heating vs DMSO (PISA); higher = thermal stabilisation; K562 lysate, 10 uM; active = over 0.2 and 3.5 SD of the protein, either way, in both replicates (recomputed)).
Summary of the method: (§1)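 Log-two fold change in thermal stability relative to solvent controls is reported from duplicates. For each sample, crude K562 extract from dounce-homogenised pellets in PBS pH 7.4 with 1 mM MgCl2, at 1 mg/mL protein, was treated with 10 μM compound for 30 min. Aliquots heated for 3 min across 48°C-58°C were pooled, brought to 0.5% NP-40 at 4°C and cleared at 21,000xg for 90 min. The supernatant was quantified by TMTpro 16plex LC-MS/MS with channel sums equalised.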

log2 fold change, inactive:
RNF4 (UniProt P78317) 0.019
RNF8 (UniProt O76064) 0.211
RPL15, A0A2R8Y738 -0.181
ROGDI (UniProt Q9GZN7) 0.158
RPL22L1 (UniProt Q6P5R6) 0.028
RINL (UniProt Q6ZS11) 0.122
RPF1 (UniProt Q9H9Y2) -0.258
RILPL2 (UniProt Q969X0) 0.05
RNF130 (UniProt Q86XS8) -0.036
RNF185 (UniProt Q96GF1) 0.003
RPGR (UniProt Q92834) -0.105
RNF167 (UniProt Q9H6Y7) -0.002
RNF121 (UniProt Q9H920) 0.034
RNF17 (UniProt Q9BXT8) 0.553
RLIM (UniProt Q9NVW2) -0.021
RNF5 (UniProt Q99942) 0.008
ROS1 (UniProt P08922) -0.133
RNF169 (UniProt Q8NCN4) -0.08
RNF24 isoform 2 (UniProt Q9Y225) 0.083
RPL10, A0A087WV22 -0.357
RPAIN isoform 8 (UniProt Q86UA6) 0.064
RNF138 (UniProt Q8WVD3) 0.013

The targets below were run with C1=CC=C(C=C1)C2=NC(=C(N2)C3=CC=NC=C3)C4=CC(=C(C=C4)Cl)O in the same assay as above.
Summary of the method: as §1

log2 fold change, inactive:
RHOXF2B (UniProt P0C7M4) 0.031
RIMKLB (UniProt Q9ULI2) 0.026
RNPC3 (UniProt Q96LT9) 0.011
RNF4 (UniProt P78317) -0.081
RNF8 (UniProt O76064) 0.141
ROGDI (UniProt Q9GZN7) 0.025
RPL22L1 (UniProt Q6P5R6) 0.239
RINL (UniProt Q6ZS11) 0.077
RPF1 (UniProt Q9H9Y2) 0.016
RNPEPL1 (UniProt Q9HAU8) -0.086
ROBO2 isoform 3 (UniProt Q9HCK4) 0.008
RILPL2 (UniProt Q969X0) -0.173
RNFT1 (UniProt Q5M7Z0) -0.106
RNF121 (UniProt Q9H920) 0.061
RNF17 (UniProt Q9BXT8) 0.013
RNF5 (UniProt Q99942) -0.016
ROS1 (UniProt P08922) 0.029
RNF169 (UniProt Q8NCN4) 0.089
RNF41 (UniProt Q9H4P4) 0.059
RHPN2 (UniProt Q8IUC4) -0.039
RPL10, A0A087WV22 -0.05
RNF138 (UniProt Q8WVD3) 0.023

What follows are targets tested with C1=CC=C2C(=C1)C3=NNC4=CC=CC(=C43)C2=O in the same assay as above.
Summary of the method: as §1

log2 fold change, inactive:
RHOXF2B (UniProt P0C7M4) 0.194
RNF4 (UniProt P78317) -0.04
RHOQ (UniProt P17081) 0.212
RNF115 (UniProt Q9Y4L5) -0.042
RNF139 (UniProt Q8WU17) 0.024
RMND5B (UniProt Q96G75) -0.132
RNPEPL1 (UniProt Q9HAU8) 0.141
RP9 (UniProt Q8TA86) -0.134
RNF130 (UniProt Q86XS8) 0.016
ROS1 (UniProt P08922) -0.014
RPAIN isoform 8 (UniProt Q86UA6) -0.013
RNF138 (UniProt Q8WVD3) 0.021

Each target was assayed with C1CCN(C1)C(=O)NC2=CC=CC(=C2)NC3=NC=C(C(=N3)NCCC4=CN=CN4)Br in the same assay as above.
Summary of the method: as §1

log2 fold change, inactive:
RNF4 (UniProt P78317) -0.008
RNF8 (UniProt O76064) 0.091
RPL22L1 (UniProt Q6P5R6) -0.593
RHOQ (UniProt P17081) -0.131
RINL (UniProt Q6ZS11) -0.302
RNF10 isoform 2 (UniProt Q8N5U6) -0.129
RNFT1 (UniProt Q5M7Z0) 0.059
RNF17 (UniProt Q9BXT8) -0.025
RNF5 (UniProt Q99942) 0.108
ROS1 (UniProt P08922) -0.095
RHPN2 (UniProt Q8IUC4) -0.045
RPAIN isoform 8 (UniProt Q86UA6) -0.045
RHOBTB3 (UniProt O94955) -0.211
RNF138 (UniProt Q8WVD3) 0.067

The targets below were run with C1CN(CCC1(CC2=CC=C(C=C2)Cl)N)C3=NC=NC4=C3C=CN4 in the same assay as above.
Summary of the method: as §1

log2 fold change, inactive:
RNF4 (UniProt P78317) -0.143
RNF8 (UniProt O76064) -0.205
RPL22L1 (UniProt Q6P5R6) -0.688
RHOQ (UniProt P17081) -0.01
RINL (UniProt Q6ZS11) 0.195
RNF10 isoform 2 (UniProt Q8N5U6) 0.231
RNFT1 (UniProt Q5M7Z0) 0.042
RNF17 (UniProt Q9BXT8) 0.033
RNF5 (UniProt Q99942) -0.084
ROS1 (UniProt P08922) 0.021
RHPN2 (UniProt Q8IUC4) 0.067
RPAIN isoform 8 (UniProt Q86UA6) 0.01
RHOBTB3 (UniProt O94955) -0.005
RNF138 (UniProt Q8WVD3) -0.058
